Measurements reported in paper PMC11987316.
These are yes or no findings as the source states them, for the method shown. In cells and extracts the contact can be indirect. Some binding calls cover weakened binding; strength is not graded here.

Protein sequences, listed by entry. Tags and fused reporters are not part of them. Residues count along the entry.
UniProt O14543: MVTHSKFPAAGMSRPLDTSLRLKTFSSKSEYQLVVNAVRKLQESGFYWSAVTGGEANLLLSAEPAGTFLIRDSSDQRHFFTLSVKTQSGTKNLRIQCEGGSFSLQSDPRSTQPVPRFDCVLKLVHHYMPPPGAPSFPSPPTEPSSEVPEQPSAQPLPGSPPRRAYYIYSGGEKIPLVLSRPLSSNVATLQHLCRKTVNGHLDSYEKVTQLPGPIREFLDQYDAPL
UniProt P80188, residues 21-198: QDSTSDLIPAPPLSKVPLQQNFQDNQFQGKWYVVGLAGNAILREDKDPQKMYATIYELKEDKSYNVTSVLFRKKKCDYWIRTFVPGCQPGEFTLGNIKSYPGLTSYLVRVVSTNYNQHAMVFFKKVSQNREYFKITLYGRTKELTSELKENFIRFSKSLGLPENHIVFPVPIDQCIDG

Biological target: Suppressor of cytokine signalling 3 (SOCS3) (human (endogenous in the paper's human cell lines)) (UniProt O14543)
Experiment: co-IP; total cell lysates in IP lysis buffer, primary antibodies overnight at 4 °C, protein A/G agarose 2 h at room temperature, western blotting; cell line and precipitating antibody not stated

For “Lipocalin-2 (LCN2) (from UniProt P80188 21-198)”, the binding was “binds”.
